# Primary screen of a compound library

The values are deposited in ChEMBL (CHEMBL3988442, “University of Dundee, Small-Polar-MMV Screening Library” (2021)).

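Viability assay of Plasmodium falciparum sporozoites; the read-out is not stated. The concentration is filed as 10 mM, unlikely as a test dose, so the dose is not known. The record gives no direction; compounds that gave an IC50 in retests scored well above the rest, so higher reads as lower viability. Strong results were mostly tested again. About 34,000 compounds were tested under these conditions; 0.84% (about 280) showed 50% or more at least once.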

Each number is a percent effect as filed. The controls that fix the scale are not given in the record; negative values are as filed. This is an unselected part of the compounds tested. Two or more numbers in one place are separate tests of the same structure; such repeats can differ widely.

SMILES	percent effect
CC/C=C(/C)C(=O)NCCc1csc(N2CCCC2)n1	-10.29
O=C(CCN1CCOC(Cn2cccn2)C1)NC1CCCC1 (centres undefined)	-15.27
Cc1cc(-c2nn(C)c(Cl)c2CN2CCN(C)C(C(=O)O)C2)no1 (centres undefined)	-13.12
[H][C@@]12CCN(Cc3cnn(C)c3)C[C@@]1([H])O[C@@H](c1nc(C3CC3)cs1)C2	6.325
NC(=O)Cn1cc(NC(=O)N2CCCCCC2)cn1	2.416
CCc1cccc(N2CCC(NC(=O)c3ccco3)CC2)c1	-0.4038
CN(C)C(c1ccccn1)[C@H]1CC[C@H](CNC(=O)CC2CCCC2)CC1 (some centres undefined)	1.098
Cc1ccc(-n2nnc(CC(=O)N3CCSCC3)c2C)cc1	10.16 & 2.399 & 24.57
COCC(=O)NCc1cc(=O)n2c(n1)CN(C)CCC2.O=C(O)C(F)(F)F	15.64
O=C(NCC1CC1)C1CSCN1S(=O)(=O)c1cccc(F)c1 (centres undefined)	-4.368
CCCc1ncc(C(=O)N2CCOc3ncccc32)s1	-15.96
Cc1nc(C2(NCC(=O)NCCc3cccs3)CCCC2)no1	-17.7
CN1CCC(C(=O)NCc2nncn2-c2ccccc2)CC1=O (centres undefined)	-1.28
CCc1noc(C)c1C(=O)NCCCC(CC)(CC)C1OCCO1	-17.23
CN(C)C(=O)Cn1c(C2CC2)c(CN2CCSCC2)c2cccnc21	5.683
CCc1noc(CN2CCN(c3nccs3)CC2)n1	-5.762
O=C(O)C(F)(F)F.[H][C@@]12COC[C@H](C(=O)NCc3ccco3)[C@]1([H])CN(Cc1ccoc1)C2	9.536 & -0.03864 & -5.227
N#CCc1ccc(NC(=O)Cn2cc(I)cn2)cc1	-19.81 & 4.814 & -14.03
CC(C)Cn1ncc(C(=O)O)c1C1CC1	-4.585
CCN1Cc2nccn2CC(COCc2csc(C)n2)C1.O=C(O)C(F)(F)F.O=C(O)C(F)(F)F (centres undefined)	13.34
COc1ccc(CCN2CCc3c(nc(C4CC4)n3C)C2)cc1	11.77
O=C(Cc1ccc2c(c1)CCCC2)NCCc1ccccn1	19.8
O=C(O)C(F)(F)F.[H][C@@]12CCN(Cc3c(C)noc3C)C[C@]1(C(=O)NCC1CC1)CCO2	-1.784
CNc1cccc(CC2COCCN(C(=O)c3cccnc3)C2)n1 (centres undefined)	-1.295
CCn1c(CN(C)C)nnc1C1CCN(Cc2ccccc2)CC1	-2.181
COc1cccc2c1OCC(C(=O)N1CCN(S(C)(=O)=O)CC1)C2 (centres undefined)	-1.767
CCN1CCN(C2CCN(Cc3nc(CCOC)no3)CC2)C1=O	-0.953
CC(Nc1ccc(CC(=O)N(C)C)cc1)C(=O)N(C)CCC#N (centres undefined)	13.01
Cc1ccccc1C1(CNC(=O)NC(C)c2nncn2C)CC1 (centres undefined)	-6.112
[H][C@@]12CC[C@H](Oc3ccccc3F)[C@]1([H])CN(C(=O)Cn1ccnc1)C2	-4.514
O=C(c1ccc2c(c1)CCC2)N1CCn2ncnc2C1	-5.327
Cc1noc(C2CCCN(C(=O)c3ccc(Cl)cc3F)C2)n1 (centres undefined)	-15.38
O=C(O)c1cc(S(=O)(=O)N2CCOc3ccccc32)cc(Cl)c1Cl	18.98
[H][C@]12CN(C(=O)C3CC3)CCN1C[C@H](c1ccccc1)[C@H]2C(=O)OCC	-29.16
[H][C@@]12CN(Cc3ccccn3)C[C@]1([H])CN(C(=O)Cc1ccccn1)C2	7.595
O=C(O)C(F)(F)F.O=C(O)C(F)(F)F.c1cncc(CO[C@H]2CO[C@@]3(CCN(Cc4ccoc4)C3)C2)c1	-9.43
O=C(O)C(F)(F)F.O=C(O)C(F)(F)F.c1csc(CN2CCOCC3(CCN(C4CCOCC4)C3)C2)c1 (centres undefined)	3.163
O=C(N[C@@H]1CCC[C@@H](N2CCCC2)[C@@H]1O)c1cnn2cccnc12	-0.09363
Cc1nn(C)c(N(C)C)c1CNCc1cccnc1N(C)C	-10.02
NC[C@H]1CC[C@H](C(NC(=O)c2ccccc2)c2ccccn2)CC1 (some centres undefined)	-12.25
O=S(=O)(Cc1ccc(F)cc1)NCCc1nnc2n1CCC2	-2.997
[H][C@]12CC[C@]([H])(CN(Cc3[nH]cnc3C)C1)N(C(=O)CCc1cnn(C)c1)C2	-6.943
Cc1ccc([C@H]2CN(C(=O)CC3CCC3)C[C@@H]2N)o1	-12.28
COc1ccccc1CN1CCC(Cc2cnc(CN(C)C)cn2)CC1	7.69
Cc1noc(C)c1CN1CCN(C)c2ncccc2C1.O=C(O)C(F)(F)F.O=C(O)C(F)(F)F	-1.128
c1ccc(-c2nc(CNC3CCc4ncnn4C3)co2)cc1 (centres undefined)	-12.59
[H][C@]12CC[C@@]3(N=C(C)NC3=O)[C@@]1([H])CN(C(=O)NCc1ccccc1C)C2	-6.302
CCc1cc(=O)[nH]c(NC2CCN(S(=O)(=O)c3ccccc3)CC2)n1	6.785
Cn1cc(CN2CCN(Cc3nccn3C)CC2)cn1	0.4614
O=C1CCCc2[nH]c(=O)c(C(=O)N(Cc3ccsc3)C3CC3)cc21	1.877
Cc1cnc(C(=O)N2CC(=O)N(c3ccccc3Cl)CC2C)cn1 (centres undefined)	-8.218
O=C(CN1CCCC(c2ccc(C(=O)O)cc2)C1)NC1CC1 (centres undefined)	-4.678
O=C(CCc1cccs1)Nc1ccnn1C1CCS(=O)(=O)C1 (centres undefined)	1.695
CNc1cc(-c2ccncc2)ncn1	12.45
CC(NC(=O)NCCNc1ncccn1)c1cccs1 (centres undefined)	11.61
O=C(c1cccc2c1OCCO2)N1CCCC1Cn1cccn1 (centres undefined)	-2.899
[H][C@]12CN(CC)C(=O)[C@@]1([H])CN(S(=O)(=O)c1cccs1)C2	7.186
Cc1ccc(NC(=O)N2CCCC2)c(OCC2CCCO2)c1 (centres undefined)	3.921
COc1ccccc1CN(CCCn1ccnc1)CC1CCOC1.O=C(O)CC(O)(CC(=O)O)C(=O)O (centres undefined)	8.848
c1ccc(-c2nc(CNCCn3cccn3)cs2)cc1	-44.57 & 5.218 & -28.8

The last 6 entries again:

SMILES	percent effect
CC(NC(=O)NCCNc1ncccn1)c1cccs1 (centres undefined)	11.61
O=C(c1cccc2c1OCCO2)N1CCCC1Cn1cccn1 (centres undefined)	-2.899
[H][C@]12CN(CC)C(=O)[C@@]1([H])CN(S(=O)(=O)c1cccs1)C2	7.186
Cc1ccc(NC(=O)N2CCCC2)c(OCC2CCCO2)c1 (centres undefined)	3.921
COc1ccccc1CN(CCCn1ccnc1)CC1CCOC1.O=C(O)CC(O)(CC(=O)O)C(=O)O (centres undefined)	8.848
c1ccc(-c2nc(CNCCn3cccn3)cs2)cc1	-44.57 & 5.218 & -28.8